{
  "source": "PubChem BioAssay AID504444",
  "about": "(National Center for Advancing Translational Sciences (NCATS), 2011)",
  "note": "In all, about 360,000 compounds went through this assay and about 7,500 (2.1%) were called active. The shares of active, inactive and inconclusive entries below differ from those in the screen. Calls follow the shape of the dose curve; as a rule, active = well fitted inhibition curve with a large enough effect; inconclusive = small, poorly fitted or top-dose-only effect, or effect the other way; inactive = flat fitted curve, though single readings scatter. Potencies beside an inconclusive call are fits to weak or partial responses and may not hold up. Potency is read from the fitted curve at half-maximal effect.",
  "data": [
    {"test": "Nrf2 qHTS screen for inhibitors; also: nearly all actives have a fitted effect of over 60% in size", "settings": "A549 ARE-Fluc reporter, luciferase luminescence, 18-24 h; series mostly up to 46 µM", "procedure,_shortened": "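Reporter: ARE-Fluc in A549. Exposure: 18-24 h, 37 °C, 5% CO2, 5% FBS OPTI-MEM. Readouts: fluorescent cytotoxicity (CellTiter-Fluor), then luminescent Nrf2 signal after BugLite.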", "values": [
      {"smiles": "COC(=O)C1=C(C)N(Cc2ccccc2)C(=O)N[C@H]1c1ccccc1", "Potency": "inconclusive: 10.3 µM [falling, single point]"},
      {"smiles": "COc1cccc(C(=O)N=c2sc3c(C)ccc(OC)c3n2C)c1", "Potency": "inconclusive: 1.3 µM [activator, partial curve, poor fit]"},
      {"smiles": "CC(=O)c1cnc2nc(SCc3ccccc3)nn2c1C", "Potency": "inconclusive: 20.6 µM [activator, partial curve]"},
      {"smiles": "COc1cc(OC)cc(C(=O)Nc2nnc(NC(=S)Nc3ccccc3)s2)c1", "Potency": "inconclusive: 1.64 µM [falling, partial curve, poor fit]"},
      {"smiles": "O=C(Nc1ccc2c(c1)OCO2)C1CCN(C(=O)c2ccc(Br)cc2)CC1", "Potency": "inconclusive: 14.6 µM [activator, single point]"},
      {"smiles": "CCOc1ccc(NC(=O)CN(C)C(=O)c2cc([N+](=O)[O-])ccc2Sc2ccccc2)cc1OCC", "Potency": "inconclusive: 23.1 µM [falling, single point]"},
      {"smiles": "CC1=CC(C)(C)N(S(=O)(=O)c2ccc(F)cc2)c2ccccc21", "Potency": "inconclusive: 9.2 µM [falling, partial curve, poor fit]"},
      {"smiles": "O=c1[nH]c(C2CCN(S(=O)(=O)c3cccc(Cl)c3)CC2)nc2c1nnn2Cc1ccccc1", "Potency": "active: 14.6 µM"},
      {"smiles": "Cc1cccc(CN2CCC(CNC(=O)c3c(C)oc4ncnc(N5CCCCC5)c34)CC2)c1", "Potency": "inconclusive: 9.2 µM [activator, partial curve]"},
      {"smiles": "CCN(C(=O)C1CCC(CNS(=O)(=O)c2cccc3nsnc23)CC1)c1ccc(C)c(C)c1", "note": "(stereo unspecified)", "Potency": "inconclusive: 29.1 µM [falling, single point]"},
      {"smiles": "Cc1ccc(C(=O)NNC(=O)c2cccc(C)c2)cc1", "Potency": "inconclusive: 1.64 µM [activator, full curve]"},
      {"smiles": "CN1CCN(C(=S)NC(=O)/C=C/c2ccccc2Cl)CC1", "Potency": "inconclusive: 29.1 µM [activator, single point]"},
      {"smiles": "Cc1cc(C)n2nc(CNS(=O)(=O)c3cccc([N+](=O)[O-])c3)nc2n1", "Potency": "inactive"},
      {"smiles": "O=C1S/C(=C\\c2ccc(N3CCOCC3)o2)C(=O)N1c1ccccc1", "Potency": "inactive"},
      {"smiles": "CCOc1ccc(CCNC(=O)CSCc2ccc(C)cc2)cc1OCC", "Potency": "inconclusive: 20.6 µM [falling, single point]"},
      {"smiles": "Cn1ccnc1Sc1ccc(C(N)=O)cc1[N+](=O)[O-]", "Potency": "inactive"},
      {"smiles": "CCOc1cc(N2CCOCC2)c(OCC)cc1NC(=O)c1[nH]c(C)c(C(C)=O)c1C", "Potency": "inconclusive: 3.26 µM [falling, partial curve, poor fit]"},
      {"smiles": "COc1ccc(NC(=O)CSc2nccn2Cc2ccco2)cc1", "Potency": "inconclusive: 8.2 µM [activator, partial curve, poor fit]"},
      {"smiles": "O=C(Nc1ccc(N2CCN(C(=O)c3ccco3)CC2)c(Cl)c1)c1cccnc1", "Potency": "inconclusive: 20.6 µM [falling, partial curve]"},
      {"smiles": "Cc1noc(C)c1COc1cccc(C(=O)Nc2ccc(Br)cc2F)c1", "Potency": "active: 23.1 µM"},
      {"smiles": "CCc1ccccc1N(CC)C(=O)c1c(C)oc2ncnc(N3CCOCC3)c12", "Potency": "inactive"},
      {"smiles": "O=C(Nc1ccncc1)Nc1cccc(C(F)(F)F)c1", "Potency": "inconclusive: 25.9 µM [falling, single point]"},
      {"smiles": "COc1cccc(C(=O)NC2=NCCS2)c1OC", "Potency": "inconclusive: 2.59 µM [activator, full curve]"},
      {"smiles": "CCOC(=O)C1CCN(c2nc3c(S(=O)(=O)c4ccccc4)nnn3c3ccsc23)CC1", "Potency": "inconclusive: 5.17 µM [activator, partial curve, poor fit]"},
      {"smiles": "Nc1nc(Nc2ccccc2)nc(N2CCCC2)c1[N+](=O)[O-]", "Potency": "inconclusive: 23.1 µM [activator, single point]"},
      {"smiles": "CCOC(=O)/C(C#N)=C1/C(=O)N(Cc2ccccc2)c2ccccc21", "Potency": "inconclusive: 29.1 µM [activator, single point]"},
      {"smiles": "O=C(NCCc1ccccc1)c1nc2nc(-c3cccs3)cc(C(F)(F)F)n2n1", "Potency": "inconclusive: 13 µM [activator, partial curve, poor fit]"},
      {"smiles": "COc1cccc(NC(=S)NC(C)c2ccc(OC)c(OC)c2)c1", "note": "(stereo unspecified)", "Potency": "inactive"},
      {"smiles": "CC1=C(c2ccc(C)c(C)c2)S(=O)(=O)N=C1N1CCC(C(=O)N2CCC(C(N)=O)CC2)CC1", "Potency": "inconclusive: 18.4 µM [activator, partial curve]"},
      {"smiles": "CCc1noc(C)c1C(=O)Nc1nc(-c2cccs2)cs1", "Potency": "inconclusive: 23.1 µM [activator, single point]"},
      {"smiles": "CCC(NC(=O)c1cc(COc2cncc(Cl)c2)on1)c1ccncc1", "note": "(stereo unspecified)", "Potency": "inconclusive: 14.6 µM [falling, partial curve, poor fit]"},
      {"smiles": "O=C(NCCCn1ccnc1)c1ccc2ccccc2c1", "Potency": "inconclusive: 2.31 µM [activator, partial curve, poor fit]"},
      {"smiles": "CCN(c1ccccc1)c1nnc(NC(=O)Nc2ccc(Br)cc2)s1", "Potency": "inconclusive: 29.1 µM [falling, single point]"},
      {"smiles": "O=C(NC1CCCCCC1)c1ccc(OCC2CCCO2)cc1", "note": "(stereo unspecified)", "Potency": "inconclusive: 9.2 µM [activator, partial curve]"},
      {"smiles": "CC1=C(C(=O)OC(C)C)C(c2cccs2)C(C(=O)OC(C)C)=C(C)N1", "Potency": "inconclusive: 25.9 µM [falling, single point]"},
      {"smiles": "CCCCc1c(C)c(C#N)c2[nH]c3ccccc3n2c1=O", "Potency": "active: 18.4 µM"},
      {"smiles": "O=C(CCN1C(=O)/C(=C/c2ccccc2Cl)SC1=S)Nc1ccccn1", "Potency": "inactive"},
      {"smiles": "O=C(c1cc(Br)c[nH]1)N1CCSCC1", "Potency": "inconclusive: 2.91 µM [falling, partial curve]"},
      {"smiles": "CCN(CC)c1ccc(/C=N/N2CCOCC2)cc1", "Potency": "inconclusive: 11.6 µM [activator, partial curve]"},
      {"smiles": "CCN(CC)S(=O)(=O)c1ccc(NC(=O)CSc2ncnc3ccccc23)cc1", "Potency": "inconclusive: 7.31 µM [falling, partial curve]"},
      {"smiles": "CC(C)(C)NC(=O)c1cccc(NC(=O)Cc2cccs2)c1", "Potency": "inactive"},
      {"smiles": "CC1CN(S(=O)(=O)c2ccc(C(=O)Nc3ccc(S(=O)(=O)N4CCOCC4)cc3)cc2)CC(C)O1", "note": "(stereo unspecified)", "Potency": "inconclusive: 8.2 µM [falling, partial curve]"},
      {"smiles": "Cc1ccc(C(=O)CC2(O)C(=O)N(Cc3ccccc3F)c3ccccc32)cc1", "note": "(stereo unspecified)", "Potency": "inconclusive: 29.1 µM [falling, single point]"},
      {"smiles": "COc1ccc(/C=N/NC(=O)C(=O)N2CCCC2)cc1", "Potency": "inconclusive: 29.1 µM [activator, single point]"},
      {"smiles": "COc1cccc(NC(=O)CSc2nc3ccc(NC(=O)c4cccs4)cc3s2)c1", "Potency": "inconclusive: 29.1 µM [falling, single point]"},
      {"smiles": "CC1(C)Cc2nc3sc4c(SCC(=O)O)ncnc4c3cc2CO1", "Potency": "inconclusive: 29.1 µM [falling, single point]"},
      {"smiles": "COc1ccc(-c2oc3c(OC)c(OC)c(OC)c(O)c3c(=O)c2OC)cc1OC", "Potency": "inconclusive: 14.6 µM [falling, single point]"},
      {"smiles": "Cc1ccc2nc(-c3ccc(O)cc3)oc2c1", "Potency": "active: 6.51 µM"},
      {"smiles": "CC(=O)Nc1ccc(NC(=O)c2ccc(NS(=O)(=O)c3cc(C(C)(C)C)cc(C)c3C)cc2)cc1", "Potency": "inconclusive: 6.51 µM [falling, full curve]"},
      {"smiles": "CCOc1ccc(-n2c(C)c(C(C)=O)c3cc(OC(C)=O)ccc32)cc1", "Potency": "inactive"},
      {"smiles": "Cc1ccc(NC(=O)Nc2nnc(N3CCCC3)s2)cc1", "Potency": "inconclusive: 29.1 µM [falling, single point]"},
      {"smiles": "Oc1ccc(CNc2ccc(F)cc2)c2cccnc12", "Potency": "active: 7.31 µM"},
      {"smiles": "CCOC(=O)N1CCN(C(=O)COc2ccc3c(c2)C(=O)CC2(CCN(C(C)=O)CC2)O3)CC1", "Potency": "inactive"},
      {"smiles": "CC(=O)N1CCOc2cc(S(=O)(=O)NC(C)c3ccccc3)c(Cl)cc21", "note": "(stereo unspecified)", "Potency": "inconclusive: 7.31 µM [activator, partial curve, poor fit]"},
      {"smiles": "C/C(CC(=O)Nc1c(C)cc(C)cc1C)=N\\NC(=O)Cc1ccccc1", "Potency": "inconclusive: 29.1 µM [activator, single point]"},
      {"smiles": "Cc1cc(Br)ccc1NC(=O)CN(C)Cc1cccs1", "Potency": "inconclusive: 29.1 µM [activator, single point]"},
      {"smiles": "Cc1noc(C)c1COc1cccc(C(=O)OC(C)C(=O)Nc2ccc3c(c2)OCO3)c1", "note": "(stereo unspecified)", "Potency": "inconclusive: 16.4 µM [falling, single point]"},
      {"smiles": "CCN(CC)C(=O)c1cccc(NC(=O)CCc2nc3sc4c(c3c(=O)[nH]2)CCCC4)c1", "Potency": "inconclusive: 29.1 µM [falling, single point]"},
      {"smiles": "COc1ccc(CNC(=O)c2cc(COc3c(F)cccc3F)on2)cc1OC", "Potency": "active: 25.9 µM"},
      {"smiles": "CCN(CC)CCNC(=O)c1c(C)oc2ncn(C)c(=O)c12", "Potency": "inconclusive: 9.2 µM [activator, partial curve, poor fit]"},
      {"smiles": "CCOc1ccc(N=C(C)C2=C(O)c3ccccc3C2=O)cc1", "Potency": "inconclusive: 23.1 µM [activator, partial curve]"},
      {"smiles": "CCS(=O)(=O)N1Cc2ccccc2CC1C(=O)Nc1ccc(OC)c(OC)c1", "note": "(stereo unspecified)", "Potency": "inactive"},
      {"smiles": "CSc1nnc(NC(=O)c2ccc(S(=O)(=O)N(C)C)cc2)s1", "Potency": "inconclusive: 0.326 µM [activator, full curve]"},
      {"smiles": "COc1ccc(-c2nn(-c3ccccc3)cc2/C=N/Nc2cccc(C(=O)O)c2)cc1", "Potency": "inconclusive: 23.1 µM [activator, single point]"},
      {"smiles": "Cn1c(SCC(=O)N2c3ccccc3Sc3ccc(Cl)cc32)nnc1-c1ccco1", "Potency": "inconclusive: 29.1 µM [falling, single point]"},
      {"smiles": "COc1ccccc1N(CC(=O)NCCSCc1ccc(C)cc1)S(=O)(=O)c1ccccc1", "Potency": "inconclusive: 29.1 µM [falling, single point]"}
    ]}
  ]
}
